From the supplement of paper PMC4683952
Counter-ions that a name gives are not always drawn. About 50 (4%) of roughly 1,200 compounds showed activity. No stated cut-off is given here; in the data, all actives reach 1.3 or more but so do some inactives. This is one part of the list.

Each compound was assayed on Lgr5 (MarsCy1-Lgr5-EGFP, U2OS) (assay: cell-surface Lgr5 expression (SCi1 fluorescence, background-subtracted) relative to WT DMSO (fold of DMSO control); higher = more Lgr5 at the plasma membrane, active = hit call of the paper). Conditions: U2OS MarsCy1-Lgr5-EGFP stable; treatment time: overnight; 16 µM; library: Johns Hopkins Clinical Compound Library.
In the case of `CCn1cc(C(=O)O)c(=O)c2cc(F)c(N3CCNCC3)nc21` [Enoxacin], the “cell-surface Lgr5 expression” value was inactive: 0.912. `CO/N=C(\C(=O)N[C@@H]1C(=O)N2C(C(=O)O)=CCS[C@H]12)c1csc(N)n1` [Ceftizoxime] was tested, and the “cell-surface Lgr5 expression” value was inactive: 1.09. `CC(C(=O)O)c1cccc(Oc2ccccc2)c1` (configuration not stated) [Fenoprofen calcium salt hydrate] was tested, and the “cell-surface Lgr5 expression” value was inactive: 1.15. With `Oc1ccc(C2CNCCc3c2cc(O)c(O)c3Cl)cc1` (configuration not stated) [Fenoldopam] the “cell-surface Lgr5 expression” value was inactive: 1.24. For `C[C@](N)(Cc1ccc(O)cc1)C(=O)O` [Metyrosine (L-α-Methyltyrosine)], the “cell-surface Lgr5 expression” value was inactive: 1.17. With `CS(=O)(=O)c1ccc([C@@H](O)[C@@H](CF)NC(=O)C(Cl)Cl)cc1` [Florfenicol] the “cell-surface Lgr5 expression” value was inactive: 1.01. `CCN(CC)CCCC(C)Nc1ccnc2cc(Cl)ccc12` (configuration not stated) [Chloroquine diphosphate salt] was tested, and the “cell-surface Lgr5 expression” value was inactive: 1.53. For `C[N+](C)(C)CCOP(=O)(O)OP(=O)([O-])OC[C@H]1O[C@@H](n2ccc(N)nc2=O)[C@H](O)[C@@H]1O` [Citicoline sodium (Cytidine-5'-diphosphocholine)], the “cell-surface Lgr5 expression” value was inactive: 1.07. With `Nc1ccc(S(=O)(=O)NC(=O)c2ccccc2)cc1` [Sulfabenzamide] the “cell-surface Lgr5 expression” value was inactive: 1.2. `CCC(=C(CC)c1ccc(O)cc1)c1ccc(O)cc1` [Diethylstilbesterol] was tested, and the “cell-surface Lgr5 expression” value was inactive: 1.29. With `C1N2CN3CN1CN(C2)C3` [Methenamine (Hexamethylenetetramine)] the “cell-surface Lgr5 expression” value was inactive: 1.15. In the case of `C1N2CN3CN1CN(C2)C3` [Methenamine mandelate (Hexamethylenetetramine mandelate)], the “cell-surface Lgr5 expression” value was inactive: 1.19. `O=C(O)C1=C[C@@H](O)[C@@H](O)[C@H](O)C1` [Shikimic acid] was tested, and the “cell-surface Lgr5 expression” value was inactive: 1.04. For `CCCCCN(C)CCC(O)(P(=O)(O)O)P(=O)(O)O` [Ibandronate], the “cell-surface Lgr5 expression” value was inactive: 0.811. `C[n+]1c2cc(N)ccc2cc2ccc(N)cc21.Nc1ccc2cc3ccc(N)cc3nc2c1` [Acriflavine hydrochloride] was tested, and the “cell-surface Lgr5 expression” value was inactive: 1.44. For `CCCc1cc(C(N)=S)ccn1` [Protionamide], the “cell-surface Lgr5 expression” value was inactive: 1.13. `C=C1CC[C@H](O)C/C1=C/C=C1\CCC[C@]2(C)[C@@H]([C@H](C)CCCC(C)C)CC[C@@H]12` [Cholecalciferol (Vitamin D3)] was tested, and the “cell-surface Lgr5 expression” value was inactive: 1. In the case of `C[C@H]1O[C@H](O[C@H]2[C@H](O)[C@@H](O)[C@@H](O[C@H]3[C@H](O)[C@@H](O)C(O)O[C@@H]3CO)O[C@@H]2CO)[C@H](O)[C@@H](O)[C@@H]1N[C@H]1C=C(CO)[C@@H](O)[C@H](O)[C@H]1O` (some centres not stated) [Acarbose], the “cell-surface Lgr5 expression” value was inactive: 1.02. `CC(C)(CO)[C@@H](O)C(=O)NCCC(=O)NCCSSCCNC(=O)CCNC(=O)[C@H](O)C(C)(C)CO` [Pantethine (D-Pantethine)] was tested, and the “cell-surface Lgr5 expression” value was inactive: 1.15. In the case of `N=C(N)NC(=N)NCCc1ccccc1` [Phenformin hydrochloride], the “cell-surface Lgr5 expression” value was inactive: 0.756. In the case of `NCCc1c[nH]cn1` [Histamine], the “cell-surface Lgr5 expression” value was inactive: 1.14. With `OC(Cn1cncn1)(Cn1cncn1)c1ccc(F)cc1F` [Fluconazole] the “cell-surface Lgr5 expression” value was inactive: 0.884. `CC[N+](C)(C)c1cccc(O)c1` [Edrophonium chloride] was tested, and the “cell-surface Lgr5 expression” value was inactive: 0.605. With `OCCN1CCN(CC/C=C2/c3ccccc3Sc3ccc(C(F)(F)F)cc32)CC1` [cis(Z)-Flupenthixol dihydrochloride] the “cell-surface Lgr5 expression” value was inactive: 1.1. For `Cc1cn[nH]c1` [Fomepizole (4-methylpyrazole)], the “cell-surface Lgr5 expression” value was inactive: 0.991. `CC(=O)OCC(=O)[C@@]1(O)CC[C@H]2[C@@H]3CCC4=CC(=O)C=C[C@]4(C)[C@@]3(Cl)[C@@H](Cl)C[C@@]21C` [Dichlorisone acetate] was tested, and the “cell-surface Lgr5 expression” value was active: 1.55. In the case of `CCCCN(CCCC)CCCOC(=O)c1ccc(N)cc1` [Butacaine], the “cell-surface Lgr5 expression” value was active: 1.62. In the case of `O.O.O.O.O.O.O.O.O.O.O.O.O=P([O-])([O-])[O-].[Na+].[Na+].[Na+]` [Sodium phosphate dodecahydrate], the “cell-surface Lgr5 expression” value was inactive: 1.07. With `CC[N+](C)(CC)CCOC(=O)C1c2ccccc2Oc2ccccc21` [Methantheline bromide] the “cell-surface Lgr5 expression” value was inactive: 0.987. With `CC(=O)OCC(=O)[C@@]1(O)CC[C@H]2[C@@H]3CCC4=CC(=O)CC[C@]4(C)[C@@]3(F)[C@@H](O)C[C@@]21C` the “cell-surface Lgr5 expression” value was active: 1.35. With `NS(=O)(=O)c1cc(C2(O)NC(=O)c3ccccc32)ccc1Cl` (configuration not stated) [Chlorthalidone] the “cell-surface Lgr5 expression” value was inactive: 1.01. With `CCCCCCCCCCCCCCCC(=O)OC/C=C(C)/C=C/C=C(C)/C=C/C1=C(C)CCCC1(C)C` [Vitamin A palmitate (Retinol palmitate)] the “cell-surface Lgr5 expression” value was inactive: 0.785. `C=CC(N)CCC(=O)O` (configuration not stated) [Vigabatrin] was tested, and the “cell-surface Lgr5 expression” value was active: 1.52. In the case of `Oc1cc(O)c2c(c1)O[C@H](c1ccc(O)c(O)c1)[C@@H](O)C2` [Cianidanol (Catechin)], the “cell-surface Lgr5 expression” value was inactive: 1.15. `CC(N/C(=N\C#N)Nc1ccncc1)C(C)(C)C` (configuration not stated) [Pinacidil] was tested, and the “cell-surface Lgr5 expression” value was inactive: 1.13. In the case of `CC[N+](C)(CC)CCOC(=O)C(O)(c1ccccc1)C1CCCCC1` (configuration not stated) [Oxyphenonium bromide], the “cell-surface Lgr5 expression” value was inactive: 1.16. For `O=C1c2c(O)cccc2Cc2cccc(O)c21` [Anthralin], the “cell-surface Lgr5 expression” value was inactive: 0.843. With `O=C(Nc1ccc(Cl)cc1)Nc1ccc(Cl)c(Cl)c1` [Trilocarban (3,4,4'-Trichlorocarbanilide, 99%)] the “cell-surface Lgr5 expression” value was inactive: 0.931. With `CC(=O)OCC(=O)[C@@]1(O)[C@@H](C)C[C@H]2[C@@H]3CCC4=CC(=O)C=C[C@]4(C)[C@@]3(F)[C@@H](O)C[C@@]21C` [Betamethasone 21-acetate] the “cell-surface Lgr5 expression” value was active: 1.53. For `CC(=O)OCC(=O)[C@@]1(O)[C@@H](C)C[C@H]2[C@@H]3CCC4=CC(=O)C=C[C@]4(C)[C@@]3(F)[C@@H](O)C[C@@]21C`, the “cell-surface Lgr5 expression” value was active: 1.59. In the case of `CC(=O)O` [Acetic acid], the “cell-surface Lgr5 expression” value was inactive: 0.709. `CC12CCC3c4ccc(OC(=O)c5ccccc5)cc4CCC3C1CCC2O` (stereo not drawn) [β-Estradiol 3-benzoate] was tested, and the “cell-surface Lgr5 expression” value was inactive: 0.953. With `C[C@@H]1C[C@H]2[C@@H]3C[C@H](F)C4=CC(=O)C=C[C@]4(C)[C@@]3(F)[C@@H](O)C[C@]2(C)[C@@]1(O)C(=O)CO` [Flumethasone] the “cell-surface Lgr5 expression” value was active: 1.48. With `O=C(O)Cc1ccc(-c2ccccc2)cc1` [Felbinac (4-biphenylacetic acid)] the “cell-surface Lgr5 expression” value was inactive: 1.2. For `O=C(O)c1cn(-c2ccc(F)cc2)c2cc(N3CCNCC3)c(F)cc2c1=O` [Sarafloxacin HCl], the “cell-surface Lgr5 expression” value was inactive: 0.947. For `C[N+]1(C)CCC(OC(=O)C(O)(c2ccccc2)C2CCCC2)C1` (configuration not stated) [Glycopyrrolate], the “cell-surface Lgr5 expression” value was inactive: 0.998. `Clc1ccc(CCC(Cn2ccnc2)Sc2c(Cl)cccc2Cl)cc1` (configuration not stated) [Butoconazole nitrate] was tested, and the “cell-surface Lgr5 expression” value was inactive: 0.782. `N#Cc1ccc(C(c2ccc(C#N)cc2)n2cncn2)cc1` [Letrozole] was tested, and the “cell-surface Lgr5 expression” value was inactive: 1.01. With `Cc1cc(OS(=O)(=O)O)c2ccccc2c1OS(=O)(=O)O` [Menadiol disulfate disodium salt trihydrate] the “cell-surface Lgr5 expression” value was inactive: 0.856. In the case of `N=C(NCCCCCCNC(=N)NC(=N)Nc1ccc(Cl)cc1)NC(=N)Nc1ccc(Cl)cc1` [Chlorhexidine gluconate], the “cell-surface Lgr5 expression” value was inactive: 1.08. `NCc1ccccc1CC(=O)N[C@@H]1C(=O)N2C(C(=O)O)=C(CSc3nnnn3CC(=O)O)CS[C@H]12` [Ceforanide] was tested, and the “cell-surface Lgr5 expression” value was inactive: 1.11. For `COc1c2occc2cc2ccc(=O)oc12` [Methoxsalen (8-Methoxypsoralen)], the “cell-surface Lgr5 expression” value was inactive: 1.03. In the case of `OC[C@@H](O)[C@@H](O)[C@H](O)[C@@H](O)CO` [D-Sorbitol], the “cell-surface Lgr5 expression” value was inactive: 1.12. In the case of `S=C=Nc1ccc(N=C=S)cc1` [Bitoscanate (1,4 phenylene disothiocyanate)], the “cell-surface Lgr5 expression” value was inactive: 1.14. In the case of `Cc1ncc(C[n+]2csc(CCOP(=O)(O)O)c2C)c(N)n1` [Monophosphothiamine (Thiamine Monophosphate chloride)], the “cell-surface Lgr5 expression” value was inactive: 0.743. For `CCOC(=O)c1ccc(O)c(OC)c1` [Ethyl vanillate], the “cell-surface Lgr5 expression” value was inactive: 1.06. With `CN(C)CCCOc1nn(Cc2ccccc2)c2ccccc12` [Benzydamine] the “cell-surface Lgr5 expression” value was inactive: 1.11. With `Cc1cc2nc3ccc(N(C)C)cc3[s+]c2cc1N` [Tolonium chloride (Toluidine blue O)] the “cell-surface Lgr5 expression” value was inactive: 1.15. `Nc1ccc(S(=O)(=O)Nc2ccc(Cl)nn2)cc1` [Sulfachlorpyridazine] was tested, and the “cell-surface Lgr5 expression” value was inactive: 0.987. In the case of `CN1CCC(CN2c3ccccc3Sc3ccccc32)C1` (configuration not stated) [Methdilazine hydrochloride], the “cell-surface Lgr5 expression” value was inactive: 1. With `C[C@H]1C[C@H]2[C@@H]3CCC4=CC(=O)C=C[C@]4(C)[C@@]3(Cl)[C@@H](O)C[C@]2(C)[C@@]1(O)C(=O)CO` [Beclomethasone] the “cell-surface Lgr5 expression” value was active: 1.36. With `COc1cc2nc(N3CCN(C(=O)C4CCCO4)CC3)nc(N)c2cc1OC` (configuration not stated) [Terazosin] the “cell-surface Lgr5 expression” value was inactive: 1.05. With `CC1CCC(NC(=O)N(CCCl)N=O)CC1` (configuration not stated) [Semustine] the “cell-surface Lgr5 expression” value was inactive: 1.06. With `C[N+]1(C)CCC(=C(c2ccccc2)c2ccccc2)CC1` [Diphemanil methylsulfate] the “cell-surface Lgr5 expression” value was inactive: 0.814. With `O=c1[nH]c(=O)n([C@H]2C[C@H](O)[C@@H](CO)O2)cc1F` [Floxuridine (5-fluorodeoxyuridine)] the “cell-surface Lgr5 expression” value was inactive: 0.664. In the case of `CNNCc1ccc(C(=O)NC(C)C)cc1` [Procarbazine HCl], the “cell-surface Lgr5 expression” value was inactive: 1.19. In the case of `CC(=O)Oc1cc(C(C)C)c(OCCN(C)C)cc1C` [Moxisylyte hydrochloride], the “cell-surface Lgr5 expression” value was inactive: 0.943.
